From patent publication US20230125749A1, “COMPOSITION CONTAINING PEPTIDE OR PEPTIDE COMPOUND AS ACTIVE INGREDIENT, AND MEDICAL USE THEREFOR” (AJOU UNIVERSITY INDUSTRY-ACADEMIC COOPERATION FOUNDATION, priority 2019, published 2023)
Some entries share one result that the patent states for a list of compounds.

Test system: intraperitoneal macrophages
Assay: Fluorescence-labeled cells among intraperitoneal macrophages after oral administration of fluorescence-conjugated peptides to normal mice
Format: in vivo, mouse
Conditions: measured after 48 and 72 hours, FIG. 10
Protocol: Furthermore, peptides 1, 2, and 4 were orally administered to normal mice after conjugation with each different fluorescence, and the frequency of fluorescence-labeled cells was measured among intraperitoneal macrophages after 48 and 72 hours.

| Sequence | time for which the fluorescence-labeled peptide was maintained among intraperitoneal macrophages |
| --- | --- |
| YCNKVHTCRNG [P2] | up to 48 hours |
| HTCRNGENICF [P4] | up to 48 hours |
